PubChem BioAssay AID720505, Drosophila RNAi Screening Center – 2013
The screen tested about 20,000 reagents; below is a random part of those that have a named target and a result. Of all reagents, about 2,100 (10%) were called active. 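Raw plate signals without normalisation; calls rest on control-based scores that were not deposited; replicate 2 separates called from uncalled poorly.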 The numbers tell different reagents against one gene apart. Not given: the amount of reagent, the time to read-out.

Aim: 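Knock-downs that reduce calcium influx once internal stores are emptied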 (primary screen)
Cells: Drosophila S2R+ cells
Reagent: long dsRNA against Drosophila genes
Conditions: thapsigargin (2 µM) in calcium-free buffer to empty internal stores, then 2 mM calcium added back
Detection: 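Stores emptied by 2 µM thapsigargin without calcium, then 2 mM calcium re-added; fluo-4 fluorescence followed by FLIPR in 384-well plates, per-well averaged endpoint, raw; two screen passes, some wells retested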
Reading the numbers: calcium signal: higher = more calcium entry after store depletion
Active means: 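About 1500 genes called as lowering calcium entry, by varying amounts, judged against per-plate control wells with STIM1 as positive and Rho1 as negative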
Meaning of the calls: active = called as lowering calcium entry; inactive = not called

For CG15127 #1, the entry reads calcium signal, replicate 1 = 95; calcium signal, replicate 2 = 89; inactive. For CG15127 #2 the deposit lists calcium signal, replicate 1 = 153; calcium signal, replicate 2 = 159; inactive. Against Traf6 (TNF-receptor-associated factor 6) the deposit lists calcium signal, replicate 1 = 255; calcium signal, replicate 2 = 137; inactive. Depletion of UQCR-11L (Ubiquinol-cytochrome c reductase 11 kDa subunit-like) came out at: calcium signal, replicate 1 = 86.9; calcium signal, replicate 2 = 264; inactive. With knock-down of CG3610 the results were calcium signal, replicate 1 = 119; calcium signal, replicate 2 = 179; inactive. Against CHMP2B (Charged multivesicular body protein 2b), the entry reads calcium signal, replicate 1 = 93.1; calcium signal, replicate 2 = 99.8; inactive.

After knock-down of OdsH (Ods-site homeobox) the results were calcium signal, replicate 1 = 87.3; calcium signal, replicate 2 = 92.9; inactive. After knock-down of CG16736, the record shows calcium signal, replicate 1 = 97.5; calcium signal, replicate 2 = 131; inactive. After knock-down of CG12289 the results were calcium signal, replicate 1 = 124; calcium signal, replicate 2 = 96.2; inactive. Rabex-5 (Rabaptin-5-associated exchange factor for Rab5) showed calcium signal, replicate 1 = 125; calcium signal, replicate 2 = 97; inactive. For 14-3-3epsilon, the values are calcium signal, replicate 1 = 194; calcium signal, replicate 2 = 189; inactive. Depletion of CG13362 gave: calcium signal, replicate 1 = 71.2; calcium signal, replicate 2 = 121; inactive.

2 entries already listed, arranged by “calcium signal, replicate 1”, descending.
14-3-3epsilon → calcium signal, replicate 1 = 194; calcium signal, replicate 2 = 189; Call = inactive
CG13362 → calcium signal, replicate 1 = 71.2; calcium signal, replicate 2 = 121; Call = inactive
